Experimental data from the supplement of paper PMC6411743.
± gives the standard deviation of the averaged measurements. The list shows a part of the results.

By UniProt entry, the sequences of proteins in these tests, tags left out.
UniProt P54709, whole entry: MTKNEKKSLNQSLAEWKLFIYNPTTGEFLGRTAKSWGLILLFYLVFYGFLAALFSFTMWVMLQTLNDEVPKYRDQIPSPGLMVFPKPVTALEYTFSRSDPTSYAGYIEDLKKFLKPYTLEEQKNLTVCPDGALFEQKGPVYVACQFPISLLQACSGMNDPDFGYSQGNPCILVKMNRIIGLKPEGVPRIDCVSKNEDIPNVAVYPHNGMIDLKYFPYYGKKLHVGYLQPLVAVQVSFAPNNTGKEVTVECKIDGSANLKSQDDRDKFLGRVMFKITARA

Target: ATP1B3 (UniProt P54709)
Assay: NP40-soluble protein abundance relative to vehicle (solubility fold change) (ratio); higher = more soluble protein in presence of GTP
Experimental: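 Solubility proteome profiling in Jurkat crude lysate. Lysate was treated with Mg-GTP (0.1-10 mM) for 10 min at room temperature and 3 min at 37 °C, then solubilised with 0.8% NP40 and benzonase, followed by ultracentrifugation. Proteins were quantified by TMT10 LC-MS/MS; the value is the NP40-soluble abundance relative to the NP40-processed vehicle, from 3 independent experiments.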

SMILES: Nc1nc2c(ncn2[C@@H]2O[C@H](COP(=O)(O)OP(=O)(O)OP(=O)(O)O)[C@@H](O)[C@H]2O)c(=O)[nH]1 [guanosine triphosphate]
- NP40-soluble protein abundance (concentration: 0.1mM): 0.905 ± 0.036
- NP40-soluble protein abundance (concentration: 0.5mM): 0.922 ± 0.046
- NP40-soluble protein abundance (concentration: 1mM): 0.938 ± 0.043
- NP40-soluble protein abundance (concentration: 2mM): 0.871 ± 0.054
- NP40-soluble protein abundance (concentration: 4mM): 0.854 ± 0.051
- NP40-soluble protein abundance (concentration: 6mM): 0.878 ± 0.07
- NP40-soluble protein abundance (concentration: 8mM): 0.885 ± 0.05
- NP40-soluble protein abundance (concentration: 10mM): 0.875 ± 0.05
